{
  "source": "patent US7592188B2",
  "about": "“Live cell biosensors” (The Scripps Research Institute, priority 2004, dated 2009)",
  "assay": "Thioanisole trapping experiment during photo-bleaching",
  "settings": "butanol solution",
  "data": [
    {"smiles": "CCN1/C(=C\\C=C\\C=C2C(=O)N(C)C(=S)N(C)C2=O)Sc2ccccc21", "note": "[dye 1b, 1,3-Dimethyl-5-[(2E,4E)-4-(3-ethyl-1,3-benzothiazol-2(3H)-ylidene)-but-2-enylidene]-2-thioxodihydropyrimidine-4,6(1H,5H)-dione]", "values": [
      {"measurement": "phenylmethyl sulfone generated", "value": 10, "unit": "%"},
      {"measurement": "phenylmethylsulfoxide generated", "value": 90, "unit": "%"}
    ]}
  ]
}
